Source: article doi:10.1101/2025.08.07.669188
Results are given in words; binding and its absence hold for the method and conditions named. Binding seen in cells or lysates may run through a third protein. Some binding calls cover weakened binding; strength is not graded here. Where a sequence is shown, tags or fusion partners need not be part of it.

T1: cYFP-STR2 (STR2pro:cYFP-STR2, in M. truncatula roots) (Medicago truncatula) (UniProt A9YWR6)
T1 sequence: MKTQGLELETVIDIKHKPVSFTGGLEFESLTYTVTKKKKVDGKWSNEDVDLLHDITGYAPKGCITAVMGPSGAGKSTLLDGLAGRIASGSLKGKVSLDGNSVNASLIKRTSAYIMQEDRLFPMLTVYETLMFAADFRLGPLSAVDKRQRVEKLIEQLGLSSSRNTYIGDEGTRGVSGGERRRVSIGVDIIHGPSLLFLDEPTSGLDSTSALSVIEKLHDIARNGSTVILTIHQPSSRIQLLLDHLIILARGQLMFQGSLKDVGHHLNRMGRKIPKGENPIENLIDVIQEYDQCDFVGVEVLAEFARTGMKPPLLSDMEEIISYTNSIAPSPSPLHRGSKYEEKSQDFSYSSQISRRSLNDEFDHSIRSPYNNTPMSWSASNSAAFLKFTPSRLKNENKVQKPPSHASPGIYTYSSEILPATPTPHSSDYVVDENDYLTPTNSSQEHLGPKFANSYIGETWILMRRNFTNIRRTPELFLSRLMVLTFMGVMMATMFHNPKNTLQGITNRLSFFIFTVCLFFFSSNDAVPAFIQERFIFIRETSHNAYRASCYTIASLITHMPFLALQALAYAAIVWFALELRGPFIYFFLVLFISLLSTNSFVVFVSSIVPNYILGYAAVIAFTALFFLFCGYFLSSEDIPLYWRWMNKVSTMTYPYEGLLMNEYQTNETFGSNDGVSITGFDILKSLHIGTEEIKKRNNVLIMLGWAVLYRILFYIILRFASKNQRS

T2: nYFP-STR2 (STR2pro:nYFP-STR2, in M. truncatula roots) (Medicago truncatula) (UniProt A9YWR6)
T2 sequence: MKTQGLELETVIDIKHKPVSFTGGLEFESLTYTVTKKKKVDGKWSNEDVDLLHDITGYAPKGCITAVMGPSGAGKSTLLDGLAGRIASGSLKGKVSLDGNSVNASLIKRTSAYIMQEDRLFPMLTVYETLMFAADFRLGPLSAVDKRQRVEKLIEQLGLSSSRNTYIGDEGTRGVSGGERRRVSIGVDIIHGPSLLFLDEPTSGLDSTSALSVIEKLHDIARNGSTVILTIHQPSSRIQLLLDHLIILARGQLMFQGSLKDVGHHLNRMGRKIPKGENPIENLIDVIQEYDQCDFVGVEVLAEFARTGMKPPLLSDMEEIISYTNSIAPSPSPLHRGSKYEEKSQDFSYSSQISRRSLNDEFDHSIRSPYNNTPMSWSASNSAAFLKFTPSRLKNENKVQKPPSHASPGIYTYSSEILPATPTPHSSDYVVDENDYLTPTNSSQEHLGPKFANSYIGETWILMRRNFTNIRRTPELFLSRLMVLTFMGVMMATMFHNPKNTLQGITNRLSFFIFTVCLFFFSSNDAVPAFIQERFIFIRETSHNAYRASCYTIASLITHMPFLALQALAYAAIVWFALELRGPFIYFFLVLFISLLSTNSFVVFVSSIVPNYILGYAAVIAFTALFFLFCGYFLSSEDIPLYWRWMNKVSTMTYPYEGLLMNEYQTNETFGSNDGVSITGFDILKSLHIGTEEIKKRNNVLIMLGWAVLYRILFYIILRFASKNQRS


Experiments:
[1] = biological target: T1, cYFP-STR2 (STR2pro:cYFP-STR2, in M. truncatula roots) (Medicago truncatula); assay: split reporter
[2] = biological target: T2, nYFP-STR2 (STR2pro:nYFP-STR2, in M. truncatula roots) (Medicago truncatula); assay: split reporter

binding [1] | binding [2] | Binder
binds |  | nYFP-STR1 (STR1pro:nYFP-STR1, in M. truncatula roots) (protein, UniProt D3GE74 1-817) MARLERDGTNKSLESLMDSHKPGGTTTNLNQLRTQKSIPGYGLEFTNLSYSIIKKQKKDGVWINKETYLLHDISGQAIKGEIMAIMGPSGAGKSTFLDALAGRIAKGSLQGSVRIDGKPVTTSYMKMVSSYVMQDDQLFPMLTVFETFMFAAEVRLPPSISRDEKKKRVHELLNKLGLQSATHTYIGDEGRRGVSGGERRRVSIGIEIIHKPSLLFLDEPTSGLDSTSAYSVVEKIKDIAQGGSIVLMTIHQPSFRIQMLLDKITILARGRLIYMGRPDALHTHLSGFGRPVPDGENNIEYLLDVITEYDQATVGLDPLVQYQHDGHKPDPAAMTPVPKPPRTPYRRNTPASKHMISLRSQGFTAGTPQPDSSQFGLDDDDNDDDENFDNSLERRSVQTSRNIVTSGVYPRLASQFYQDFSAKDFSVWLYNGVVGTPRRPPSWTPARTPGWTPGKTPLSGPRSFVSNQHSASYQDPYYIQKTNTVVGQSMDYSATSYAPSYEEFEIEEVLDEPDLGPKYANPWLREVAVLSWRTVLNVIRTPELFASREIVLTVMALVLSTIFKNLGDTTFIDINRLLNFYIFAVCLVFFSSNDAVPSFIMERFIFIRETSHNAYRASSYVISSLIVYLPFFAVQGLTFAVITKLMLHLKSNLFNFWMILFASLITTNAYVMLVSALVPSYITGYAVVIATTALFFLTCGFFLKRTQIPAYWKWLHYISAIKYPFEGLLINEFKNNRGCYSGNKADLSPGPLGDVKPSKHHNASLPLNCLLGEDVLSTMDITMESLWYDILILLAWGVLYRFFFYLVLRFYSKNERK
 | binds | cYFP-STR1 (STR1pro:cYFP-STR1, in M. truncatula roots) (protein, UniProt D3GE74 1-817) MARLERDGTNKSLESLMDSHKPGGTTTNLNQLRTQKSIPGYGLEFTNLSYSIIKKQKKDGVWINKETYLLHDISGQAIKGEIMAIMGPSGAGKSTFLDALAGRIAKGSLQGSVRIDGKPVTTSYMKMVSSYVMQDDQLFPMLTVFETFMFAAEVRLPPSISRDEKKKRVHELLNKLGLQSATHTYIGDEGRRGVSGGERRRVSIGIEIIHKPSLLFLDEPTSGLDSTSAYSVVEKIKDIAQGGSIVLMTIHQPSFRIQMLLDKITILARGRLIYMGRPDALHTHLSGFGRPVPDGENNIEYLLDVITEYDQATVGLDPLVQYQHDGHKPDPAAMTPVPKPPRTPYRRNTPASKHMISLRSQGFTAGTPQPDSSQFGLDDDDNDDDENFDNSLERRSVQTSRNIVTSGVYPRLASQFYQDFSAKDFSVWLYNGVVGTPRRPPSWTPARTPGWTPGKTPLSGPRSFVSNQHSASYQDPYYIQKTNTVVGQSMDYSATSYAPSYEEFEIEEVLDEPDLGPKYANPWLREVAVLSWRTVLNVIRTPELFASREIVLTVMALVLSTIFKNLGDTTFIDINRLLNFYIFAVCLVFFSSNDAVPSFIMERFIFIRETSHNAYRASSYVISSLIVYLPFFAVQGLTFAVITKLMLHLKSNLFNFWMILFASLITTNAYVMLVSALVPSYITGYAVVIATTALFFLTCGFFLKRTQIPAYWKWLHYISAIKYPFEGLLINEFKNNRGCYSGNKADLSPGPLGDVKPSKHHNASLPLNCLLGEDVLSTMDITMESLWYDILILLAWGVLYRFFFYLVLRFYSKNERK
